Measurements taken from article PMC10301001 (Pharmaceuticals, 2023).

What was measured:
[1] = general procedure: Fmoc solid-phase peptide synthesis; 2-chlorotrityl chloride resin (loading 0.7 mmol/g); HBTU, Oxyma pure, DIPEA (SPPS); HATU, DIPEA (chelator conjugation); settings: for final LC-MS purity: LC-MS (Agilent 1260 Infinity II LC/MSD XT, Poroshell 120 EC-C18)
[2] = general procedure: Fmoc solid-phase peptide synthesis; 2-chlorotrityl chloride resin; HBTU, Oxyma pure, DIPEA (SPPS); HATU, DIPEA (chelator conjugation); settings: whole synthesis, scale 0.1 mmol
[3] = whole synthesis, scale of the general procedure 0.1 mmol

EuK(Ahx-Sta-Phe-Asp-3p-C-NETA(tBu)4)
conjugation yield ([1]; conjugation step): 15% | final LC-MS purity ([1]; conjugation step): > 95%

EuK(Ahx-Sta-Phe-Asp)
isolated mass [2]: 21.8 mg | isolated yield [2]: 25% | final LC-MS purity [1, 3]: > 99%

EuK(Ahx-Sta-Phe-Asp-3p-C-NETA)
step yield ([1]; late stage modification step): 65% | final LC-MS purity ([1]; late stage modification step): > 95% | isolated yield ([1]; whole synthesis, overall, scale of the general procedure 0.1 mmol): approximately 10% | difficulty met [1, 3]: some degradation of the compound during the acidic cleavage
